From US20240093200A1
These are yes or no findings as the source states them, for the method shown. In cells and extracts the contact can be indirect. Some results given as binding are weak or reduced against the parent protein; the word gives no strength.

The chains behind the UniProt entries cited, without tags or fusion partners.
UniProt Q15910: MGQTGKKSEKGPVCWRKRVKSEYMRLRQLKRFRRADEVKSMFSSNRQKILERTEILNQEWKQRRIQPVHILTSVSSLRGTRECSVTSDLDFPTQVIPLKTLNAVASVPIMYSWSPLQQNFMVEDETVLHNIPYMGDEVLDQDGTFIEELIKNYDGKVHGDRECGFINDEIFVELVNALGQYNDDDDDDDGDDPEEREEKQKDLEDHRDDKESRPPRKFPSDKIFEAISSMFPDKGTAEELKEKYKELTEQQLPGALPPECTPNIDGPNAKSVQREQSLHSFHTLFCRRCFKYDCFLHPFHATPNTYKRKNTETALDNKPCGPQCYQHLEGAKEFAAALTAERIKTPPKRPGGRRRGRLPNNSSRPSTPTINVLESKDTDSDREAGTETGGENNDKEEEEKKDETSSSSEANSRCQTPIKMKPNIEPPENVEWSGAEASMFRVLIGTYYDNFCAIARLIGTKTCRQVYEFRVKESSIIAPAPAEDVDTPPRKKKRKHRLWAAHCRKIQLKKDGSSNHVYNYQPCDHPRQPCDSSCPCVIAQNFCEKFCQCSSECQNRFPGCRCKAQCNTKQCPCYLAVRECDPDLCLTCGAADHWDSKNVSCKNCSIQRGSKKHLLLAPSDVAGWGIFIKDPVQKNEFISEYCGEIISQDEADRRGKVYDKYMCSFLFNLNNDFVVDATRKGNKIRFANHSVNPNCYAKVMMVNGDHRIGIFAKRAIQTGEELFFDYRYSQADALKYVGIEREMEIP
UniProt P25490: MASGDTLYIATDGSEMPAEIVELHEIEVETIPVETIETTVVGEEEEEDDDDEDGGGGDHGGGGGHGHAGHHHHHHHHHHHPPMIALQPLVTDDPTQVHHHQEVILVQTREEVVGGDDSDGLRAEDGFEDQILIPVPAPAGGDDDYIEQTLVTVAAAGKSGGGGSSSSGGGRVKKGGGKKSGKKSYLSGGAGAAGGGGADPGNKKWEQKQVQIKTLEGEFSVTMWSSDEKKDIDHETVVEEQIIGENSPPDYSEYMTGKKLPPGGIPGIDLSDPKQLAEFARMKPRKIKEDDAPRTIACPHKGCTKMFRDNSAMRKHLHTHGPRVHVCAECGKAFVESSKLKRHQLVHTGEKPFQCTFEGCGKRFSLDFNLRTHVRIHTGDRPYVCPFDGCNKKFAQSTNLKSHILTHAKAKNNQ

Experiments:
[1] = target: Enhancer of zeste homolog 2 (Ezh2) (human) (UniProt Q15910); experiment: co-immunoprecipitation (FIG. 15)
[2] = target: Enhancer of zeste homolog 2 (Ezh2) (human) (UniProt Q15910); experiment: co-immunoprecipitation: IP with Ezh2 antibody, blot probed with YY1 antibody
[3] = target: Enhancer of zeste homolog 2 (Ezh2) (human) (UniProt Q15910); experiment: co-immunoprecipitation from extract of T cells under exhaustion conditions, western blot

Measured: binding

Yin Yang 1 (YY1) (from UniProt P25490 1-414)
binds: [1] | [2] | [3]
